No constants are given. Whether binding was seen depends on the method and setting. A result given as binding can be weak or reduced; the word gives no strength.
How the values were obtained:
dog CCR8 (dog) [1] = assay: FACS binding analysis (FIG. 4C)
dog CCR8 (dog) [2] = assay: flow cytometry on CCR8-overexpressing cells
dog CCR8 (dog) [3] = assay: species cross reactivity, comparison of Table 12

- binding (dog CCR8 (dog) [1]): binds
- binding (dog CCR8 (dog) [2]): binds
- binding (dog CCR8 (dog) [3]): binds
B1: 3F11hz4 (antibody, V domains shown)
VH: EVQLVESGGGLVQPGGSLKLSCAASGFSFNTYAMNWVRQASGKGLEWVGRIRSKSNYYATYYAASVKGRFTISRDDSKSTLYLQMNSLKTEDTAVYYCVRGRELGDYYAMDYWGQGTLVTVSS
VL: DIVMTQSPLSLPVTPGEPASISCRSSKSLLHSNGNTYLYWFLQKPGQSPQLLIYRMSNLASGVPDRFSGSGSGTDFTLKISRVEAEDVGVYYCMQHLEYPFTFGQGTKLEIK

— patent US20240352134A1
